Measured values from PMC6639331.
For at least one entry, the source does not settle the construct or the ends of the probe. Weaker means in comparison with the reference protein, sequence or condition of that experiment.

Tested on: CCR4-NOT FULL (CCR4a E240A:CAF1 D40A) (Homo sapiens)
Test: EMSA
Settings: 1 uM protein, 100 nM RNA, EMSA: 20 mM Tris/HCl pH 7.5, 10 mM NaCl, 2 mM MgCl2, 0.1% BSA, 0.1% Orange G, 3% Ficoll 400, 10% native PAGE in TBE pH …, temperature not stated, recombinant protein, protein details: NOT1 N-His10 and C-StrepII x2, other tags removed, label: labeled

AAAAAAAAAAAAAAAAAAAAAAAAAAAAAA [poly(A)30]
binding result: binds more weakly
